# Experimental data as given in article PMC5034536, “Molecular insights into substrate recognition and catalytic mechanism of the chaperone and FKBP peptidyl-prolyl isomerase SlyD” (BMC Biology, 2016).
# These are yes or no findings as the source states them, for the method shown. A result given as binding can be weak or reduced; the word gives no strength.
# Target: full-length SlyD from Thermus thermophilus (TtSlyDFL) (Thermus thermophilus)
# Assay: crystal structure; co-crystallisation; protein at 30–60 mg/ml incubated with a threefold excess of peptide; sitting drop, 4 °C, PEG, pH 5.0–8.0; both purified
row,Binder,binding
1,TRYWNPKMKPFIFGA (C-terminal amide) [S2 peptide],binds
2,KMKPFIFGARNKVHI (C-terminal amide) [S2-plus2 peptide],binds
3,VGSNSYPHKYNNYEG (C-terminal amide) [T1 peptide],binds
